PubChem BioAssay AID1671195 – Yale University, 2021

Purpose: 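Knockdowns that increase or decrease uptake of fluorescent LDL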 (primary screen)
System: human Huh7 hepatoma cells
Reagent: siRNA pool against human genes, 18 nM
Timing: about 2 to 2.5 days of knockdown, then 8 h LDL uptake
Treatment: DiI-labelled LDL at 30 µg/ml for 8 h, in lipoprotein-deficient serum medium
Read-out: 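Per-cell DiI-LDL intensity by automated imaging; well means scaled to the plate median and given as a robust z-score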
Reading the numbers: robust z-score: higher = more LDL uptake after knockdown
Rule for the call: 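Active when two or more replicates show a robust z-score above 2 or below -2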
Shown is a random part of about 22,000 deposited reagents. About 1,510 of all reagents (6.9%) count as active. 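Active includes knockdowns raising or lowering LDL uptake; positive z-scores mean more uptake, negative mean less.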 Reagent sequences are not shown.

DNAH10 (dynein axonemal heavy chain 10)
- robust z-score, replicate 1: -0.602
- robust z-score, replicate 2: -0.866
- robust z-score, replicate 3: -0.266
- Outcome: inactive

UCK2 (uridine-cytidine kinase 2)
- robust z-score, replicate 1: 2.22
- robust z-score, replicate 2: -0.489
- robust z-score, replicate 3: 1.76
- Outcome: inactive

KCNE5
- robust z-score, replicate 1: -0.299
- robust z-score, replicate 2: 0.199
- robust z-score, replicate 3: 1.94
- Outcome: inactive

SERPINH1 (serpin family H member 1)
- robust z-score, replicate 1: -2.09
- robust z-score, replicate 2: -1.12
- robust z-score, replicate 3: -1.69
- Outcome: inactive

SORCS3 (sortilin related VPS10 domain containing receptor 3)
- robust z-score, replicate 1: -0.536
- robust z-score, replicate 2: -0.436
- robust z-score, replicate 3: -1.28
- Outcome: inactive

BFSP1 (beaded filament structural protein 1)
- robust z-score, replicate 1: 1.08
- robust z-score, replicate 2: 0.354
- robust z-score, replicate 3: 1.73
- Outcome: inactive

CLDN5 (claudin 5)
- robust z-score, replicate 1: 1.33
- robust z-score, replicate 2: 1.86
- robust z-score, replicate 3: 1.07
- Outcome: inactive

ARID4A (AT-rich interaction domain 4A)
- robust z-score, replicate 1: 1.39
- robust z-score, replicate 2: 0.992
- robust z-score, replicate 3: 1.15
- Outcome: inactive

GRK2 (G protein-coupled receptor kinase 2)
- robust z-score, replicate 1: 1.71
- robust z-score, replicate 2: 1.03
- robust z-score, replicate 3: -0.379
- Outcome: inactive

LOC388966 (retired record)
- robust z-score, replicate 1: 0.293
- robust z-score, replicate 2: 0.473
- robust z-score, replicate 3: -0.0429
- Outcome: inactive

LMBR1L (limb development membrane protein 1 like)
- robust z-score, replicate 1: 0.556
- robust z-score, replicate 2: 0.851
- robust z-score, replicate 3: 0.332
- Outcome: inactive

NAE1 (NEDD8 activating enzyme E1 subunit 1)
- robust z-score, replicate 1: 0.034
- robust z-score, replicate 2: -0.971
- robust z-score, replicate 3: -1.61
- Outcome: inactive

WWC2 (WW and C2 domain containing 2)
- robust z-score, replicate 1: -1.16
- robust z-score, replicate 2: -0.976
- robust z-score, replicate 3: -1.39
- Outcome: inactive

The list goes on, starting with the last 3 of the part before.
LMBR1L (limb development membrane protein 1 like)
- robust z-score, replicate 1: 0.556
- robust z-score, replicate 2: 0.851
- robust z-score, replicate 3: 0.332
- Outcome: inactive

NAE1 (NEDD8 activating enzyme E1 subunit 1)
- robust z-score, replicate 1: 0.034
- robust z-score, replicate 2: -0.971
- robust z-score, replicate 3: -1.61
- Outcome: inactive

WWC2 (WW and C2 domain containing 2)
- robust z-score, replicate 1: -1.16
- robust z-score, replicate 2: -0.976
- robust z-score, replicate 3: -1.39
- Outcome: inactive

FAM135A (family with sequence similarity 135 member A)
- robust z-score, replicate 1: 0.00108
- robust z-score, replicate 2: -0.912
- robust z-score, replicate 3: 1.18
- Outcome: inactive

UBE2L6 (ubiquitin conjugating enzyme E2 L6)
- robust z-score, replicate 1: 0.159
- robust z-score, replicate 2: -0.179
- robust z-score, replicate 3: -1.16
- Outcome: inactive

STK25 (serine/threonine kinase 25)
- robust z-score, replicate 1: -1.35
- robust z-score, replicate 2: -1.47
- robust z-score, replicate 3: -1.12
- Outcome: inactive

CDPF1 (cysteine rich DPF motif domain containing 1)
- robust z-score, replicate 1: 1.87
- robust z-score, replicate 2: 0.48
- robust z-score, replicate 3: 1.44
- Outcome: inactive

FANCG (FA complementation group G)
- robust z-score, replicate 1: -1.14
- robust z-score, replicate 2: 0.287
- robust z-score, replicate 3: -0.531
- Outcome: inactive

ECD (ecdysoneless cell cycle regulator)
- robust z-score, replicate 1: 2.48
- robust z-score, replicate 2: 1.17
- robust z-score, replicate 3: 2.78
- Outcome: active

KRABD5P1 (KRABD5 pseudogene 1)
- robust z-score, replicate 1: -0.751
- robust z-score, replicate 2: -0.846
- robust z-score, replicate 3: -0.575
- Outcome: inactive

DBN1 (drebrin 1)
- robust z-score, replicate 1: 0.764
- robust z-score, replicate 2: -1.29
- robust z-score, replicate 3: 0.0801
- Outcome: inactive

SHKBP1 (SH3KBP1 binding protein 1)
- robust z-score, replicate 1: -1.95
- robust z-score, replicate 2: -1.14
- robust z-score, replicate 3: -1.12
- Outcome: inactive

LOC442339 (retired record)
- robust z-score, replicate 1: 0.372
- robust z-score, replicate 2: 0.073
- robust z-score, replicate 3: 0.161
- Outcome: inactive

LOC440186 (retired record)
- robust z-score, replicate 1: 1.51
- robust z-score, replicate 2: 1.07
- robust z-score, replicate 3: 1.28
- Outcome: inactive

XIRP1 (xin actin binding repeat containing 1)
- robust z-score, replicate 1: -0.808
- robust z-score, replicate 2: -0.379
- robust z-score, replicate 3: -0.607
- Outcome: inactive

NR1H4 (nuclear receptor subfamily 1 group H member 4)
- robust z-score, replicate 1: -0.505
- robust z-score, replicate 2: -1.35
- robust z-score, replicate 3: -0.453
- Outcome: inactive

PPT1 (palmitoyl-protein thioesterase 1)
- robust z-score, replicate 1: 1.41
- robust z-score, replicate 2: 1.93
- robust z-score, replicate 3: 2.23
- Outcome: active

COPB1 (coat protein complex I subunit beta 1)
- robust z-score, replicate 1: -2.05
- robust z-score, replicate 2: -2.35
- robust z-score, replicate 3: -2.02
- Outcome: active

SLC16A13
- robust z-score, replicate 1: 0.743
- robust z-score, replicate 2: 1.72
- robust z-score, replicate 3: 1.23
- Outcome: inactive

RPS18 (ribosomal protein S18)
- robust z-score, replicate 1: -0.932
- robust z-score, replicate 2: 0.407
- robust z-score, replicate 3: 0.282
- Outcome: inactive
